{"source": "PubChem BioAssay AID1259405 – NCATS – 2018", "test": "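Silenced genes that increase secreted GFP made by CHO cells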 (primary screen)", "cells": "Chinese hamster CHO-K1 ovary cells with stable secreted eGFP expression", "knock-down reagent": "single siRNA against mouse genes, 0.8 pmol siRNA per well (2 µl of 400 nM stock)", "timing": "3 days", "detection": "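Per-well intracellular GFP measured by laser scanning cytometry, plus viability from ATP luminescence, each relative to plate median of non-targeting control wells, in %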", "reading the numbers": "GFP, % of control: higher = more GFP per well, higher productivity; viability (ATP), % of control: higher = more viable cells (more ATP)", "active means": "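Called active when intracellular GFP, relative to negative control, is at or above 120%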", "note": "Shown is an unselected part of about 50,000 reagents tested. About 4,000 of them (8%) count as active. 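Mouse siRNA library applied to hamster cells; one well for each siRNA.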 A number with no mark means an inactive call. The numbers tell different reagents against one gene apart."}
{"target": "Clec9a", "reagent": 1, "GFP, % of control": 81.6, "viability (ATP), % of control": 69}
{"target": "Clec9a", "reagent": 2, "GFP, % of control": 62.6, "viability (ATP), % of control": 81.8}
{"target": "Clec9a", "reagent": 3, "GFP, % of control": 73.2, "viability (ATP), % of control": 78.2}
{"target": "Tie1", "reagent": 1, "GFP, % of control": 86.4, "viability (ATP), % of control": 76.9}
{"target": "Tie1", "reagent": 2, "GFP, % of control": 51.9, "viability (ATP), % of control": 86.1}
{"target": "Tie1", "reagent": 3, "GFP, % of control": 65.4, "viability (ATP), % of control": 49}
{"target": "Snrpe", "reagent": 1, "GFP, % of control": "226 (active)", "viability (ATP), % of control": 70.8}
{"target": "Snrpe", "reagent": 2, "GFP, % of control": 110, "viability (ATP), % of control": 74.9}
{"target": "Ndufa2", "reagent": 1, "GFP, % of control": "133 (active)", "viability (ATP), % of control": 135}
{"target": "Ndufa2", "reagent": 2, "GFP, % of control": "143 (active)", "viability (ATP), % of control": 99}
{"target": "Trex1", "reagent": 1, "GFP, % of control": 33.1, "viability (ATP), % of control": 43.4}
{"target": "Trex1", "reagent": 2, "GFP, % of control": 58.1, "viability (ATP), % of control": 83.8}
{"target": "Trex1", "reagent": 3, "GFP, % of control": 75, "viability (ATP), % of control": 57.4}
{"target": "Nsmce1", "reagent": 1, "GFP, % of control": 92.7, "viability (ATP), % of control": 76.5}
{"target": "Nsmce1", "reagent": 2, "GFP, % of control": "131 (active)", "viability (ATP), % of control": 86.1}
{"target": "Nsmce1", "reagent": 3, "GFP, % of control": 80.8, "viability (ATP), % of control": 69.8}

Entries listed so far marked active, once more:
{"target": "Snrpe", "reagent": 1, "GFP, % of control": "226 (active)", "viability (ATP), % of control": 70.8}
{"target": "Ndufa2", "reagent": 1, "GFP, % of control": "133 (active)", "viability (ATP), % of control": 135}
{"target": "Ndufa2", "reagent": 2, "GFP, % of control": "143 (active)", "viability (ATP), % of control": 99}
{"target": "Nsmce1", "reagent": 2, "GFP, % of control": "131 (active)", "viability (ATP), % of control": 86.1}
